{"source": "PubChem BioAssay AID1347131", "about": "(National Center for Advancing Translational Sciences (NCATS), 2019)", "note": "The whole screen tested about 410,000 compounds, of which about 2,000 (0.49%) were called active. Inconclusive results, whose numbers are uncertain, are shown with a selection of clear calls. The call rests on the fitted dose curve; tested in HEK293 reporter line. Potencies of inconclusive entries are doubtful fits and often do not repeat. Potency means the concentration at half of the fitted maximal effect.", "data": [{"test": "qHTS Assay for Foot and Mouth Disease Virus Antivirals: Primary Screen against the MLPCN compound library; further: nearly all actives have a fitted effect of over 55% in size", "settings": "FMDV antiviral cell-based qHTS; activity, negative = inhibition: at 57.9 µM (top of the series)", "values": [{"smiles": "CCN1C(=O)/C(=C\\C=C2/C=CC=CN2CC)SC1=S", "Potency": "inconclusive: 17.8 µM [inhibitor, single point]"}, {"smiles": "Cc1ccc2nc(SCC(=O)Nc3cc(C(C)(C)C)nn3-c3ccccc3)[nH]c2c1", "Potency": "inconclusive: 14.1 µM [inhibitor, partial curve, poor fit]"}, {"smiles": "COc1cc(/C=C/c2ccc(/C=C/c3cc(OC)c(OC)c(OC)c3)cc2)cc(OC)c1OC", "Potency": "inconclusive: 22.4 µM [inhibitor, partial curve, poor fit]"}, {"smiles": "CN(C)c1ccc(-c2noc(C3CC(=O)N(c4ccc5c(c4)OCCO5)C3)n2)cc1", "note": "(configuration not stated)", "Potency": "inconclusive: 35.5 µM [inhibitor, partial curve, poor fit]"}, {"smiles": "COc1ccc(C(=O)Nc2ccc(Cl)c(S(=O)(=O)N3CCOCC3)c2)cc1", "Potency": "inconclusive: 25.1 µM [inhibitor, partial curve, poor fit]"}, {"smiles": "CC(=O)Oc1c2c(c(CC=C(C)C)c3c1C(=O)C1=CC4CC5C(C)(C)OC(C/C=C(\\C)C(=O)O)(C4=O)[C@]15O3)OC(C)(CCC=C(C)C)C=C2", "note": "(some centres not stated)", "Potency": "inconclusive: 3.98 µM [inhibitor, full curve, poor fit]"}, {"smiles": "COc1ccc2c(c1)CCc1c(C(=O)Nc3c(C)nn(Cc4ccc(Cl)cc4)c3C)noc1-2", "Potency": "inconclusive: 8.91 µM [inhibitor, partial curve, poor fit]"}, {"smiles": "Cc1nnc(SCC(=O)N2c3ccccc3C(C)(c3ccccc3)CC2(C)C)s1", "note": "(configuration not stated)", "Potency": "inconclusive: 39.8 µM [inhibitor, partial curve, poor fit]"}, {"smiles": "O=C1C=C(c2ccccc2)C(=O)N1Nc1ccccc1", "Potency": "inconclusive: 35.5 µM [inhibitor, partial curve, poor fit]"}, {"smiles": "NC(=O)c1ccc(N2CCN(c3ccc(O)cc3)CC2)c([N+](=O)[O-])c1", "activity, negative = inhibition": "inactive: -35.5%"}, {"smiles": "C[C@@](N)(C(=O)O)[C@@H]1C[C@@H]1C(=O)O", "Potency": "inconclusive: 39.8 µM [inhibitor, single point]"}, {"smiles": "Cc1ccccc1NC(=O)C1CCN(c2cc(-c3ccccc3)nc3ncnn23)CC1", "Potency": "inconclusive: 35.5 µM [inhibitor, partial curve, poor fit]"}, {"smiles": "Cc1cccc(/C=C(\\c2nc3ccccc3[nH]2)S(=O)(=O)c2ccccc2)c1", "Potency": "inconclusive: 8.91 µM [inhibitor, partial curve, poor fit]"}, {"smiles": "Cc1ccc(-n2cc(C(=O)c3ccccc3O)cn2)cc1", "Potency": "inconclusive: 25.1 µM [inhibitor, single point]"}, {"smiles": "CC(C)(C)OC(=O)CNC(=O)c1[nH]cnc1C(=O)N[C@@H](CCCCNC(=O)OC(C)(C)C)C(=O)OC(C)(C)C", "activity, negative = inhibition": "inactive: -33.6%"}, {"smiles": "O=C(Nc1ccc(N2CCN(C(=O)c3ccc(Cl)cc3)CC2)cc1)c1cccs1", "Potency": "inconclusive: 10 µM [inhibitor, partial curve, poor fit]"}, {"smiles": "CCOCCOC(=O)c1[nH]c2c(c1C)C(=O)CC(c1cc(OC)c(OC)c(OC)c1)C2", "note": "(configuration not stated)", "Potency": "inconclusive: 28.2 µM [inhibitor, partial curve, poor fit]"}, {"smiles": "Cc1ccc(NC(=O)COC(=O)C2CC2C)c(S(=O)(=O)N2CCCCC2)c1", "note": "(configuration not stated)", "activity, negative = inhibition": "inactive: -31.9%"}, {"smiles": "CSc1ncccc1C(=O)N1CCCC(C(=O)c2cc(F)ccc2F)C1", "note": "(configuration not stated)", "Potency": "inconclusive: 14.1 µM [inhibitor, partial curve, poor fit]"}, {"smiles": "CC(=O)c1cccc(NC(=O)CNC(=O)c2cc3ccccc3o2)c1", "activity, negative = inhibition": "inactive: -36.7%"}, {"smiles": "CCCNC(=O)C1CCN(S(=O)(=O)c2ccc(Br)cc2)CC1", "Potency": "inconclusive: 20 µM [inhibitor, partial curve, poor fit]"}, {"smiles": "COC(=O)C(=C/C(C)=C/c1cccs1)C(=O)OC", "Potency": "inconclusive: 28.2 µM [inhibitor, partial curve, poor fit]"}, {"smiles": "CCN(CC)CCNC(=O)C(Cl)=C1C(Cl)=C(Cl)C(Cl)=C1Cl", "Potency": "inconclusive: 22.4 µM [inhibitor, partial curve, poor fit]"}, {"smiles": "CC1C(=O)N(Cc2cn(CCC3OCCCO3)nn2)CCS(=O)(=O)N1Cc1ccc(-c2ccc(Cl)cc2)cc1", "note": "(configuration not stated)", "Potency": "inconclusive: 11.2 µM [inhibitor, partial curve, poor fit]"}, {"smiles": "Cc1ccc(S(=O)(=O)N2CCN(C(=O)/C=C/c3ccccc3)CC2)cc1C", "activity, negative = inhibition": "inactive: -31.7%"}, {"smiles": "CCOc1ccc2nc(NC(=O)c3ccc(OCC4CCCO4)cc3)sc2c1", "note": "(configuration not stated)", "Potency": "inconclusive: 17.8 µM [inhibitor, partial curve, poor fit]"}, {"smiles": "CCn1c(SCC(=O)Nc2nc3ccccc3s2)nc2c(c1=O)SC(C)C2", "note": "(configuration not stated)", "Potency": "inconclusive: 31.6 µM [inhibitor, partial curve, poor fit]"}, {"smiles": "O=C(NCCc1csc(-c2ccc(Cl)cc2)n1)c1cccs1", "Potency": "inconclusive: 25.1 µM [inhibitor, partial curve, poor fit]"}, {"smiles": "CC(=O)c1c(C)[nH]c(C(=O)OCC(=O)N2CCN(S(=O)(=O)c3ccc(C)cc3C)CC2)c1C", "Potency": "inconclusive: 20 µM [inhibitor, partial curve, poor fit]"}, {"smiles": "Cc1ccc(Nc2nc(-c3cccs3)cs2)nc1", "Potency": "inconclusive: 14.1 µM [inhibitor, partial curve, poor fit]"}, {"smiles": "CC(=O)c1sccc1NC(=O)CC(C)(C)CC(=O)O", "Potency": "inconclusive: 3.16 µM [inhibitor, full curve]"}, {"smiles": "Cc1cc(SCC(=O)Nc2cccc(S(N)(=O)=O)c2)c(C)cc1Br", "Potency": "inconclusive: 14.1 µM [inhibitor, partial curve, poor fit]"}, {"smiles": "COc1ccc(/C=N/Nc2cc(C)nc3ccccc23)cc1", "activity, negative = inhibition": "inactive: -31%"}, {"smiles": "Cc1ccc(NS(=O)(=O)c2cc(Br)cc3c2N(C(=O)C2CC2)CC3)cc1C", "Potency": "inconclusive: 10 µM [inhibitor, partial curve, poor fit]"}, {"smiles": "O=c1c(Cl)c(Cl)cnn1Cc1ccc(F)cc1", "Potency": "inconclusive: 39.8 µM [inhibitor, partial curve, poor fit]"}, {"smiles": "C=C(C(=O)c1ccccc1)C(C)CC(=O)c1ccccc1", "note": "(configuration not stated)", "Potency": "inconclusive: 28.2 µM [inhibitor, partial curve, poor fit]"}, {"smiles": "COc1cc2[nH]c(=O)n(CCCCCC(=O)N3CCN(c4cccc(C(F)(F)F)c4)CC3)c(=O)c2cc1OC", "Potency": "inconclusive: 22.4 µM [inhibitor, partial curve, poor fit]"}, {"smiles": "CCCNC(=O)c1cccc(NC(=O)C(C)C)c1", "Potency": "inconclusive: 7.08 µM [inhibitor, single point]"}, {"smiles": "Cc1ccc(Sc2ccc(NC(=O)CCl)cc2)cc1C", "Potency": "inconclusive: 28.2 µM [inhibitor, partial curve, poor fit]"}, {"smiles": "c1ccc(-c2csc3ncnc(NCC4COc5ccccc5O4)c23)cc1", "note": "(configuration not stated)", "Potency": "inconclusive: 28.2 µM [inhibitor, partial curve, poor fit]"}, {"smiles": "N#CCCN(C(=O)CN1CCN(S(=O)(=O)c2ccc3c(c2)OCCO3)CC1)c1ccc(F)cc1", "Potency": "inconclusive: 39.8 µM [inhibitor, partial curve, poor fit]"}, {"smiles": "Cc1nn(-c2ccccn2)c2c1C(=O)C(Br)CC2", "note": "(configuration not stated)", "Potency": "inconclusive: 31.6 µM [inhibitor, partial curve, poor fit]"}, {"smiles": "CCOC(=O)N1C(=O)[C@@](CC)(c2ccccc2)N1C(=O)OCC", "Potency": "inconclusive: 35.5 µM [inhibitor, single point]"}, {"smiles": "COC(=O)CS(=O)(=O)c1nnc([C@H](Cc2ccccc2)NC(=O)OC(C)(C)C)o1", "Potency": "inconclusive: 31.6 µM [inhibitor, partial curve, poor fit]"}, {"smiles": "COC(=O)C1=C(C(=O)OC)C2OC1c1cc3ccccc3cc12", "Potency": "inconclusive: 28.2 µM [inhibitor, single point]"}, {"smiles": "COc1ccccc1NC(=O)Nc1nc(CC(=O)NCc2ccc(F)cc2)cs1", "Potency": "inconclusive: 39.8 µM [inhibitor, partial curve, poor fit]"}, {"smiles": "COc1cc(OC)cc(C(=O)Nc2nc3ccccc3[nH]2)c1", "Potency": "inconclusive: 22.4 µM [inhibitor, single point]"}, {"smiles": "CCOC(=O)c1cc2c(C)n(-c3ccc(OCC)cc3)c(C)c2ccc1=O", "Potency": "inconclusive: 39.8 µM [inhibitor, partial curve, poor fit]"}, {"smiles": "CC(SCc1ccccc1)C(=O)N/N=C/c1ccc(OCC(=O)NCc2ccco2)cc1", "note": "(configuration not stated)", "Potency": "inconclusive: 12.6 µM [inhibitor, partial curve, poor fit]"}, {"smiles": "Cc1cc(C)n(-c2ccc(C(=O)Nc3cccnc3Cl)cc2)n1", "Potency": "inconclusive: 2.51 µM [inhibitor, full curve]"}, {"smiles": "O=C(Nc1cccc(F)c1)C1CCN(c2nnnn2-c2ccccc2)CC1", "Potency": "inconclusive: 17.8 µM [inhibitor, partial curve, poor fit]"}, {"smiles": "CCOc1ccc2nc(N3C(=O)CNC3=S)sc2c1", "Potency": "inconclusive: 20 µM [inhibitor, single point]"}, {"smiles": "CC(C)C(=O)Nc1ccc(NC(=O)c2ccccn2)cn1", "Potency": "inconclusive: 17.8 µM [inhibitor, single point]"}, {"smiles": "Cc1ccc(/C=C/c2nc3ccccc3[nH]2)cc1", "Potency": "inconclusive: 8.91 µM [inhibitor, partial curve, poor fit]"}, {"smiles": "CCC(c1nnnn1C(C)(C)C)N1CCC2(CC1)C(=O)NCN2c1ccccc1", "note": "(configuration not stated)", "Potency": "inconclusive: 2.24 µM [inhibitor, full curve]"}, {"smiles": "CCOc1ccc(C(=O)Nc2cccc(C(=O)O)c2)cc1Cl", "Potency": "inconclusive: 8.91 µM [inhibitor, partial curve, poor fit]"}, {"smiles": "CCOc1ccc(CN2CCC(C(=O)N3CCN(c4ccccc4F)CC3)CC2)cc1OC", "Potency": "inconclusive: 11.2 µM [inhibitor, partial curve, poor fit]"}]}]}
